Record: PubChem BioAssay AID652272 (Drosophila RNAi Screening Center, 2013)

Screen: 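Genome-wide knock-down search for components of Hedgehog signalling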 (primary screen)
System: Drosophila clone 8 (Cl8) cells
Reagents: long dsRNA against Drosophila genes
Measured: 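Plate reader light from a firefly reporter under a ptc promoter fragment that responds to Hedgehog, with Renilla light as transfection reference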
Scale: firefly Hh reporter signal: higher = more ptc reporter light; Renilla reference signal: higher = more Renilla control light
Hit rule: 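Hit when the z-score averaged over two replicates is under -2 or over +3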
Meaning of the calls: active = hit: reporter lowered or raised; inactive = not a hit
The deposit covers about 21,000 reagents; shown is an unselected part of those with a known target gene and a result. Over the whole deposit, 503 (2.4%) got an active call. 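Raw plate light values, not normalised; calls rest on replicate z-scores that were not deposited; hits include reporter decreases as well as increases.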 Names joined by + are all predicted targets of the reagent. Not stated in the record: the amount of reagent, the time to read-out.

predicted target | amplicon | firefly Hh reporter signal, replicate 1 | firefly Hh reporter signal, replicate 2 | firefly Hh reporter signal, replicate 3 | Renilla reference signal, replicate 1 | Renilla reference signal, replicate 2 | Call
CG30222 | DRSC04125 | 67424 | 39100 | – | 1206 | 3764 | inactive
CG30222 | DRSC04262 | 1.19e5 | 56940 | – | 3100 | 6025 | inactive
CR18166 | DRSC17260 | 4.47e5 | 1.93e5 | – | 27025 | 4980 | inactive
CR18166 | DRSC18147 | 73640 | 2.22e5 | – | 3057 | 10248 | inactive
Ak6 | DRSC07274 | 78173 | 53808 | – | 1632 | 4368 | inactive
Chrac-16 | DRSC20343 | 60938 | 27321 | – | 4304 | 925 | inactive
Egfrap | DRSC09963 | 55804 | 39345 | – | 4896 | 2938 | inactive
Egfrap | DRSC09964 | 45197 | 39001 | – | 4976 | 3171 | inactive
Spag1 | DRSC15331 | 1.03e5 | 91744 | – | 3653 | 2568 | inactive
Ank | DRSC17127 | 78003 | 47497 | – | 1811 | 1544 | inactive
Gasz | DRSC06829 | 64082 | 63383 | – | 3104 | 2777 | inactive
CG43074 | DRSC08044 | 98759 | 2.64e5 | – | 2506 | 9954 | inactive
osi | DRSC02931 | 1.41e5 | 6.89e5 | 67255 | 3683 | 29382 | inactive
CG17486 | DRSC07752 | 1.08e5 | 76681 | – | 5557 | 3750 | inactive
Alp7 | DRSC04355 | 94535 | 49296 | – | 1947 | 3016 | inactive
Bmcp | DRSC10808 | 1.27e5 | 1.10e5 | – | 5616 | 4768 | inactive
Not11 | DRSC04204 | 69836 | 78006 | – | 1289 | 6208 | inactive
srw | DRSC08201 | 74813 | 32647 | – | 2016 | 1332 | inactive
mino | DRSC14132 | 81568 | 74112 | – | 1732 | 2089 | inactive
CG7990 | DRSC19296 | 5.71e5 | 2.80e5 | – | 36870 | 7241 | inactive
CG7990 | DRSC20069 | 54947 | 46432 | – | 1574 | 1146 | inactive
CG13877 + pyx | DRSC08347 | 1.00e5 | 51762 | – | 2916 | 3655 | inactive
CG42749 | DRSC18091 | 1.09e5 | 3.13e5 | – | 3712 | 10707 | inactive
CG42749 | DRSC18092 | 55773 | 1.84e5 | – | 1840 | 6432 | inactive
CG9525 | DRSC03249 | 94395 | 44960 | – | 2535 | 5203 | inactive
cato | DRSC07589 | 70177 | 44196 | – | 1600 | 3469 | inactive
Fer3HCH | DRSC19892 | 1.13e5 | 3.96e5 | – | 3059 | 12642 | inactive
CG10405 | DRSC14238 | 96841 | 88906 | – | 4119 | 2042 | inactive
GABA-B-R3 | DRSC00561 | 87648 | 78073 | – | 2379 | 1978 | inactive
ogre | DRSC18809 | 76288 | 95564 | – | 1760 | 2240 | inactive
Cdk9 | DRSC04601 | 49122 | 38234 | – | 1844 | 4663 | active
CG8860 | DRSC07291 | 1.12e5 | 61355 | – | 3082 | 5385 | inactive
CG13039 | DRSC09920 | 1.26e5 | – | – | 8183 | 3768 | inactive
eIF4E4 | DRSC09701 | 69430 | 68871 | – | 581 | 2802 | inactive
CG15011 | DRSC08464 | 99633 | 47239 | – | 3509 | 1814 | inactive
Vhl | DRSC07716 | 58263 | 31895 | – | 1705 | 2688 | inactive
CG32488 | DRSC08549 | 7.59e5 | 1.15e5 | – | 4690 | 4690 | inactive
Npc2h | DRSC14297 | 1.08e5 | 1.51e5 | – | 3481 | 14371 | inactive
CG15083 | DRSC06514 | 96459 | 44496 | – | 2066 | 2181 | inactive
CR10032 | DRSC12499 | 72812 | 99024 | – | 2982 | 2667 | inactive
Cpr92F | DRSC15819 | 6.26e5 | 1.16e5 | – | 34417 | 3493 | inactive
alpha-Est4 | DRSC12616 | 59392 | 79832 | – | 1585 | 2433 | inactive
FucTC | DRSC20966 | 6.39e5 | 2.37e5 | – | 35728 | 5673 | inactive
CG18171 | DRSC08524 | 68169 | 43060 | – | 1780 | 2996 | inactive
Nepl14 | DRSC15631 | 4.90e5 | 74561 | – | 23190 | 2059 | inactive
CG13800 (retired record) | DRSC08334 | 64871 | 38129 | – | 1504 | 2888 | inactive
CG3803 | DRSC04420 | 92052 | 51108 | – | 2533 | 4105 | inactive
Phk-3 | DRSC04547 | 85195 | 78450 | – | 1898 | 6379 | inactive
CG31380 | DRSC15688 | 4.81e5 | 90256 | – | 23424 | 2580 | inactive
Mlc1 | DRSC16740 | 79052 | 77987 | – | 2592 | 2864 | inactive
rho-7 | DRSC07304 | 1.01e5 | 69304 | – | 2624 | 5401 | inactive
cona | DRSC16281 | 6.35e5 | 1.11e5 | – | 35105 | 3114 | inactive
AOX3 | DRSC15955 | 2.05e5 | 76769 | – | 7904 | 1008 | inactive
Polr1H | DRSC14594 | 81768 | 60615 | – | 4272 | 2731 | inactive
snoRNA:Me28S-C3227a + snoRNA:Me18S-A1061 + snoRNA:Me28S-C3227b + 7 more | DRSC05497 | 8.17e5 | 1.43e5 | 1.30e5 | 5169 | 3920 | inactive
CG11635 | DRSC06075 | 92983 | 61242 | – | 2294 | 5229 | inactive
Gad1 | DRSC08661 | 46983 | 34931 | – | 2514 | 1876 | inactive
